Experimental data: PubChem BioAssay AID1508600 (Functional Genomics Laboratory (NCATS/FGL), 2020)
Screen size: about 53,000 sequences; about 3,700 (7%) were called active.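 How the source made its calls: active means gene knockdowns whose robust z-score for IL-1 alpha signal is at least 2 or at most -2, so actives lie on both sides; inactive means the rest.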 The list shows a part of the results.

experiment: Components of the Cytosolic LPS Sensing Pathway: Gene Identification via Genome-wide siRNA Screen; conditions: RAW264.7 macrophages, IL-1a HTRF, actives lie on both sides, screened at 100 nM (by protocol), cells primed 5 h with Pam3CSK4 first;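 further: robust z of the log signal after scaling to non-targeting control siRNA wells of the plate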
Summary of the method: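 Cells (RAW264.7, 1×10^4 per well) were transfected with siRNA at 100 nM and cultured 48h at 37 degrees C. Pam3CSK4 was added for 5 hours; LipidA transfection followed for 24 hour. IL-1a was then measured by HTRF.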

Row | Sequence | z-score
1 | GGACGACGACUUUUUAAAATT against Pnmal1 | active: 2.18
2 | GGGAGCACCAGCAAUGGAUTT against Col17a1 | inactive: 0.192
3 | GGAAAUUUGGAUUGAUGAATT against Mef2c | inactive: -0.909
4 | GGACAAUAUGAGUUUUCUGTT against Glb1 | inactive: 0.732
5 | GCGAAUCAUGAAAUACCAGTT against Arhgef25 | inactive: -0.0921
6 | CGAUAAAGUCGAAAUCUACTT against Stat2 | inactive: 0.672
7 | GGAUACAUUGAGAAAGACUTT against Tor1aip2 | active: 2.43
8 | GGCUCUCAAACCCAUGUACTT against Foxf2 | inactive: -0.799
9 | GCUGAUCACAAACGAUUACTT against Arl9 | inactive: 0.559
10 | CCCAAGAGAAAACGGUGCCTT against Fscn1 | inactive: -1.07
11 | GGUAACUUCAGUCUUGUUATT against Marf1 | inactive: -0.131
12 | GGGAUCCUCAGAAGGUGAATT against Agfg2 | inactive: -0.786
13 | GCUCAGAAGUCCAAGAUACTT against Casp12 | inactive: -1.86
14 | GGGUGCUCUGAAGAAGCAATT against Olfr488 | active: -2.04
15 | GGAGCGGAGAGAAAGCAUCTT against Mpo | inactive: -0.649
16 | CGGUGCACAACGUACCAAUTT against Srxn1 | inactive: -0.0189
17 | GGAAUGACUUCCCUACAAUTT against Dcun1d4 | inactive: 0.175
18 | CGGACUGAUAACUUGGGAATT against Mtpn | inactive: 0.435
19 | GGUGACAAACUGAUUUUAATT against Mov10l1 | inactive: -0.492
20 | CGAUGCAUUUUAAAGAUGUTT against Pde8b | inactive: -0.121
21 | GGUUUUGUGAGCAACCUGCTT against Abcb6 | inactive: 0.346
22 | UAGACACUAACCAGCUGGATT against Olfr1307 | inactive: 1.12

Row | Sequence | z-score
23 | GCAGCAGUAAUGAUGGAUCTT against Ncoa3 | active: 2.47
24 | GGUAACUUCUCAUCUCAACTT against Mapkapk3 | inactive: 0.339
25 | GGGCUUUUUCAACAGAGGCTT against Fam241b | inactive: 0.172
26 | CCAUUACUCAUCGAGAGUGTT against Cenpl | inactive: 0.101
27 | GGCCUACCUUACCCUAAGATT against Adam32 | inactive: 0.513
28 | GCGAAGCUAGGUUUACUGUTT against Gpr132 | inactive: 1.02
29 | GGUUUUUAAGGCUGUUUACTT against Ttc23 | inactive: -0.521
30 | GGAAAUGAAGCCAAAAUAATT against Rab33b | inactive: 0.24
31 | GGGCCUAUAUAACAUCUUGTT against Usp11 | inactive: 0.306
32 | GCUGAACCUAUGAGGGAGATT against Gpank1 | inactive: 0.809
33 | GGGUCAAAAGAUAUUUGUCTT against Pitpna | inactive: 0.772
34 | GGUGUUCCACCCAACUCAATT against Sil1 | inactive: -0.226
35 | GCUAGGACAUUCAUUCAACTT against Bbs12 | inactive: -0.605
36 | CCAGAACUCUCGACACCCUTT against Tlx1 | inactive: 1.61
37 | GCAAAUUGACCAGUCUUUUTT against D230025D16Rik | inactive: 0.00876
38 | GGUACUUGUAUUGCUCAUUTT against Asf1b | inactive: 0.151
39 | GGAUUAAAGGCCAUAAGGATT against Zfp747 | inactive: -0.813
40 | GGGCACAUUCAGAUGUUCGTT against Nmnat2 | inactive: 0.438
41 | CCAGGAGAACAGGAUAUAUTT against Fgr | inactive: 0.49
42 | GCAGAACCUUGGAAAAAAATT against Mef2a | inactive: -1.72
43 | CCAUGGCCAAGAACUAGUUTT against Hp | inactive: 1.26
44 | GGAUUUUGAAGAUGCUUGUTT against Naa35 | inactive: -0.518

Row | Sequence | z-score
45 | GGACUACUUUAAGGAUUGGTT against Tfip11 | active: -2.97
46 | CGAGUACCAUCUUUAUCCATT against Hlcs | inactive: -1
47 | GGCAACUCCGUAUUAUAACTT against Pcdhb10 | inactive: 1.02
48 | GGCUCAUCAAAGGAAGAAATT against Araf | inactive: 0.67
49 | CCUUCAAUCUUUCUUUCUGTT against Olfr1465 | inactive: -0.635
50 | CCAUGAAGACAGGACACUUTT against 4930451E10Rik | inactive: -0.0509
51 | CAAUAAUGAACAGUAGAGUTT against Olfr798 | inactive: 0.259
52 | CCCGACUUCAGGAUGACAATT against Sigirr | inactive: 0.143
53 | GGUAAUGAUCCAUUCACCATT against Ly75 | inactive: -1.47
54 | GCAGAAGUUCAUUUUCCUATT against Olfr145 | inactive: 0.969
55 | CGUGAAGGACAUGUCUAAATT against Sike1 | inactive: 0.186
56 | GGGAUAGGAUUGCAUCAGUTT against Olfr356 | inactive: -1.69
57 | CGGUGCCCUACAUGCUAAATT against Ebi3 | inactive: 1.72
58 | GGGAUAUGUGAAGCCUCAGTT against Mospd3 | inactive: -1.21
59 | GGAUGGUUUUCGUCUGACGTT against Umod | inactive: -0.151
60 | GCAUGUUAAGGGCAAUGGUTT against Fem1al | inactive: 0.375
61 | GGAGUCCUGUUCUUCUUUATT against Trpv4 | inactive: -0.854
62 | GGCGCACACUUUCACCUAATT against Tmem170 | inactive: 0.194
63 | GGGUUAUCAACAAAAAUGATT against Agtr1b | inactive: -0.433
64 | GUGUGCCACAUACUGGUCCTT against Olfr806 | inactive: 0.62
65 | GCGUGUAAUAUUCAUCAUATT against Pdss1 | inactive: 1.67
66 | CCUCAGGUUAUUGAAUAUUTT against Rapgef6 | inactive: 0.502

Row | Sequence | z-score
67 | GGAUUUCAUGAUUCAGGGUTT against Ppih | inactive: -0.283
68 | GGUCUUAUGGGAAAAUUAGTT against Lamc2 | inactive: -0.000598
69 | GGGAGCUGAACACAAACACTT against Trav3-3 | inactive: 0.191
70 | CGUAAGACGGAUGUACAUCTT against Smco1 | inactive: 0.846
71 | GGAAGUGGAACACAUGAUCTT against Zfp346 | inactive: -0.449
72 | CCAUCCAGUCCCUAAGAAATT against Zcwpw1 | inactive: -0.256
73 | GGAAGAAGACGGACUUCGGTT against Vapb | inactive: -1.3
74 | GCCCUUACAUAAUAGCUUGTT against Tacr2 | inactive: 1.56
75 | GUCAUCAUGGGUCCUGAGATT against Vmn1r193 | inactive: -0.754
76 | GGACAAUUUUUCUUCUCCATT against Tsnax | inactive: -0.744
77 | GGUUUGUGCGGACUUGAUCTT against Rps20 | inactive: -0.143
78 | GGCUAUGUGAAUGAAGGGATT against Fbxl14 | inactive: 0.574
79 | CCGACUCCCAUCUUGUGAATT against Acsf2 | inactive: -0.588
80 | CCUUAUUCCACCCAUUUUCTT against Gprc5a | inactive: -0.101
81 | GGCUAGUGUCAGAAAACCCTT against Tfrc | inactive: -0.675
82 | GGAAGAGUCAACAUAAUAGTT against Galk2 | inactive: -1.97
83 | GCUCUGUUCACCUACCCGATT against Anapc16 | inactive: 0.264
84 | GGGAUCGUAGAAGAUUAUATT against Pbdc1 | inactive: -0.504
85 | CCUUCUCUAGCUAUGGCUATT against Gabrg3 | inactive: -0.198
86 | GGGUUUUGACUUUCGUUUUTT against Etnk2 | inactive: 0.65
87 | UCACAGAAGGCUGUAUCCUTT against Olfr231 | inactive: -0.942
88 | GCUCAGAUAAUGGCCUACATT against Smarca4 | active: 2.28

Row | Sequence | z-score
89 | GAGUGUUUCAGAUUCUUCATT against Klra8 | inactive: 0.329
90 | CGACUACCAACAGUUCAUATT against P2rx6 | inactive: 1.14
91 | GGACUUCUCCAUCCUGCUUTT against Alg1 | inactive: -0.542
92 | GCGGUCACGUGUGAUGGAUTT against Zfp653 | active: 3.98
93 | GGAAGAAGAAAAGAUUCUGTT against Ddx41 | inactive: -0.0781
94 | CCACAGCCAAAUGCACAAGTT against Platr26 | inactive: 0.31
95 | GGUUUAGGGUCAAGAUAUUTT against Ttf2 | inactive: -1.39
96 | GGAAAAAAGUCAAGAAAGUTT against Fstl5 | inactive: -0.478
97 | GGAAAGAGACAGAAGAAGCTT against Lrrc23 | inactive: -0.396
98 | GCGGGCUGUCGUUAUGAUGTT against Qrfpr | inactive: 0.0894
99 | GUACAACUAGACAUUAUGCTT against H2bu1-ps | inactive: -1.21
100 | GGUUUGUAUCUUAAAUGCCTT against Tdpoz4 | active: 2.88
101 | GGAAGAGAGGACCAUGAAGTT against Usp18 | inactive: -1.14
102 | GGCAUACCUGGAGAAGUGUTT against Prr5l | active: -2.31
103 | GGAUGCAUAUGAAUUUGCUTT against Brdt | inactive: 0.969
104 | GGGUGAAAAUGGCAUUGUUTT against Col1a2 | inactive: 0.56
105 | GGUCUAGUAGGAUUUCUAUTT against Nid1 | inactive: 0.318
106 | CGCGGAGGUCUCUCUUAUUTT against Prss39 | active: 2.22
107 | GCCCAUGUGGACUUCUAUGTT against Spr | inactive: -0.521

Reprinted from the results shown for reference:
Row | Sequence | z-score
79 | CCGACUCCCAUCUUGUGAATT against Acsf2 | inactive: -0.588
80 | CCUUAUUCCACCCAUUUUCTT against Gprc5a | inactive: -0.101
81 | GGCUAGUGUCAGAAAACCCTT against Tfrc | inactive: -0.675
82 | GGAAGAGUCAACAUAAUAGTT against Galk2 | inactive: -1.97
83 | GCUCUGUUCACCUACCCGATT against Anapc16 | inactive: 0.264
84 | GGGAUCGUAGAAGAUUAUATT against Pbdc1 | inactive: -0.504
85 | CCUUCUCUAGCUAUGGCUATT against Gabrg3 | inactive: -0.198
86 | GGGUUUUGACUUUCGUUUUTT against Etnk2 | inactive: 0.65
87 | UCACAGAAGGCUGUAUCCUTT against Olfr231 | inactive: -0.942
88 | GCUCAGAUAAUGGCCUACATT against Smarca4 | active: 2.28
89 | GAGUGUUUCAGAUUCUUCATT against Klra8 | inactive: 0.329
90 | CGACUACCAACAGUUCAUATT against P2rx6 | inactive: 1.14
91 | GGACUUCUCCAUCCUGCUUTT against Alg1 | inactive: -0.542
92 | GCGGUCACGUGUGAUGGAUTT against Zfp653 | active: 3.98
93 | GGAAGAAGAAAAGAUUCUGTT against Ddx41 | inactive: -0.0781
94 | CCACAGCCAAAUGCACAAGTT against Platr26 | inactive: 0.31
95 | GGUUUAGGGUCAAGAUAUUTT against Ttf2 | inactive: -1.39
96 | GGAAAAAAGUCAAGAAAGUTT against Fstl5 | inactive: -0.478
97 | GGAAAGAGACAGAAGAAGCTT against Lrrc23 | inactive: -0.396
98 | GCGGGCUGUCGUUAUGAUGTT against Qrfpr | inactive: 0.0894
99 | GUACAACUAGACAUUAUGCTT against H2bu1-ps | inactive: -1.21
100 | GGUUUGUAUCUUAAAUGCCTT against Tdpoz4 | active: 2.88
101 | GGAAGAGAGGACCAUGAAGTT against Usp18 | inactive: -1.14
102 | GGCAUACCUGGAGAAGUGUTT against Prr5l | active: -2.31
103 | GGAUGCAUAUGAAUUUGCUTT against Brdt | inactive: 0.969
104 | GGGUGAAAAUGGCAUUGUUTT against Col1a2 | inactive: 0.56
105 | GGUCUAGUAGGAUUUCUAUTT against Nid1 | inactive: 0.318
106 | CGCGGAGGUCUCUCUUAUUTT against Prss39 | active: 2.22
107 | GCCCAUGUGGACUUCUAUGTT against Spr | inactive: -0.521
